In PubChem BioAssay AID493014 (National Center for Advancing Translational Sciences (NCATS), 2011):
The list shows a part of the results. Shown are side measurements of this screen, not its main read-out; they come without a call. Compounds called inactive in the main read-out are mostly missing here. Potencies come from curve fits of mixed quality, noted in brackets.

Assay: qHTS Assay to Find Inhibitors of Chronic Active B-Cell Receptor Signaling
Conditions: ABC-DLBCL IkBa-CBG/CBR reporter, luminescence ratio (green luciferase fused to IkBa over red control in TMD8 lymphoma cells), 4 h
Procedure, shortened: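 Concentration-response series (up to 46 uM) were applied to TMD8 dual-reporter cells for 4 h at 37C with doxycycline. Green/red ratio, after filter-overlap correction, defined %Activity; red signal alone was normalised to basal cells and zero luminescence.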

[1] = measured here: CBR red luminescence, cell number
[2] = measured here: IkBa-CBG green luminescence

SMILES	AC50 [1]	AC50 [2]
C/C(=N\NC(=O)c1ccccc1Cl)c1c(O)n(C2CCCCC2)c(=O)[nH]c1=O	1.58 µM [falling, full curve]	
CCOC(=O)c1c(C)[nH]c(C)c1C(=O)C(Cc1ccccc1)N(C)C (stereo not given)	0.794 µM [rising, full curve, poor fit]	
c1ccc(CSc2ccc(-c3ccccn3)nn2)nc1	11.2 µM [falling, partial curve, poor fit]	
O=C(/C=C/c1ccc(Br)cc1)NC(=S)N1C[C@H]2C[C@H](C1)c1cccc(=O)n1C2	0.501 µM [falling, full curve, poor fit]	
CCNC(=S)NCCC1=c2ccccc2=N/C1=C\c1c(O)n(C)c(=O)n(C)c1=O	20 µM [falling, single point]	
Cc1noc(C)c1C(=O)NNc1cc(Cl)ccc1Cl	4.47 µM [rising, partial curve, poor fit]	
O=C(CN1CC(c2ccccc2)CC1=O)Nc1ccccc1 (stereo not given)	0.146 µM [rising, full curve, poor fit]	
CCCCOC(=O)n1c(=O)oc2ccccc21	3.26 µM [falling, partial curve]	
COC(=O)[C@@H]1C[C@H]1[C@@H](NP(=O)(c1ccccc1)c1ccccc1)c1ccccc1		5.17 µM [falling, partial curve, poor fit]
CC(Cc1ccccc1)N1Cc2ccccc2C1 (stereo not given)	0.631 µM [rising, partial curve, poor fit]	
CC(C)c1ccc(C2NCc3ccccc3-n3cccc32)cc1 (stereo not given)	10 µM [rising, partial curve, poor fit]	
CC(=O)Nc1ccccc1C(=O)OCc1cccc(F)c1	11.2 µM [rising, partial curve, poor fit]	
CN1CCN(c2cc(N3CCCCCC3)c(F)cc2[N+](=O)[O-])CC1	0.146 µM [rising, full curve, poor fit]	
CC(C)(C)NC(=O)CN1CCCN(C(=O)COc2ccc(Cl)c3ccccc23)CC1	16.4 µM [falling, single point]	
CC(Cc1ccccc1)N1C(=O)c2ccccc2C1=O (stereo not given)	22.4 µM [rising, partial curve, poor fit]	
COC(=O)C1=C(c2ccccc2OCc2ccccc2)C[C@@H]2CC[C@H]1N2C(=O)NCc1ccc([N+](=O)[O-])cc1	8.2 µM [falling, partial curve, poor fit]	
CNC(=O)c1cccn(Cc2cccc(C(F)(F)F)c2)c1=O	17.8 µM [rising, single point]	
CC1CN(c2ccc([N+](=O)[O-])c(N3CCCCC3)c2)CCN1 (stereo not given)	35.5 µM [falling, single point]	
CCN(CC)c1ccc(CNCCc2ccccc2F)cc1	17.8 µM [falling, partial curve, poor fit]	
COc1ccc(-c2noc(=O)n2Cc2ccccc2F)cc1	11.2 µM [rising, partial curve, poor fit]	

Part of the list above, with each value named.
c1ccc(CSc2ccc(-c3ccccn3)nn2)nc1
  AC50 [1]: 11.2 µM [falling, partial curve, poor fit]
CC(Cc1ccccc1)N1C(=O)c2ccccc2C1=O (stereo not given)
  AC50 [1]: 22.4 µM [rising, partial curve, poor fit]

(more compounds)

SMILES	AC50 [1]	AC50 [2]
CCOCCc1c(O)[nH]c(=S)[nH]c1=O	5.01 µM [falling, partial curve]	
c1cc2c(cc1[C@H]1OCC3C1CO[C@@H]3c1ccc3c(c1)OCO3)OCO2 (stereo not given in full)	0.116 µM [rising, full curve]	
CCn1c(O)c(C=Nc2ccc(S(N)(=O)=O)cc2)c(=O)n(CC)c1=S	18.4 µM [falling, single point]	
Cc1ccc(NC(=O)CSc2nnc([C@@H](N)Cc3c[nH]c4ccccc34)o2)c(C)c1	11.2 µM [falling, partial curve]	
COCCCn1c(N)c(C(=O)NCc2ccco2)c2nc3ccccc3nc21	7.08 µM [falling, partial curve, poor fit]	1.41 µM [rising, full curve, poor fit]
Cc1cc(C(=O)OCC(=O)Nc2ccccc2F)c(C)n1C1CC1	5.8 µM [falling, partial curve, poor fit]	
C[C@H]1CC[C@@H]2[C@@H](C)[C@H]3[C@H](C[C@H]4[C@@H]5CC=C6C[C@@H](O[C@@H]7O[C@H](CO)[C@H](O)[C@H](O[C@@H]8O[C@H](CO)[C@@H](O)[C@H](O)[C@H]8O)[C@H]7O[C@@H]7O[C@@H](C)[C@H](O)[C@@H](O)[C@H]7O)CC[C@]6(C)[C@H]5CC[C@]34C)N2C1	23.1 µM [rising, single point]	
C#CCOc1ccc2c(c1)c(C(C)=O)c(C)n2Cc1ccccc1	35.5 µM [falling, single point]	35.5 µM [rising, partial curve, poor fit]
COc1cc(/C=C/c2nc3ccccc3c(=O)n2-c2ccccc2O)ccc1O	12.6 µM [falling, partial curve]	
Oc1ccc(CC2CC3CCN2CC3)cc1O (stereo not given)	7.08 µM [rising, partial curve, poor fit]	
C/C(=C\c1ccc(N(C)C)cc1)[N+](=O)[O-]	35.5 µM [rising, single point]	35.5 µM [falling, single point]
C[n+]1c2ccccc2nc2ccc(NCCO)cc21	35.5 µM [falling, single point]	
C=CCn1c(O)c(/C(C)=N/NC(=S)Nc2ccccc2)c(=O)[nH]c1=O	35.5 µM [falling, single point]	
C=C1N2CCC(CC2)C1(O)c1ccc(C)cc1 (stereo not given)	3.26 µM [falling, partial curve, poor fit]	
CC1(C)C(C(=O)NN2C(=O)c3ccccc3C2=O)C1(C)C	0.0517 µM [rising, full curve, poor fit]	
CCn1c(O)c(/C=N/NC(=O)c2ccccc2)c(=O)n(CC)c1=S	1.12 µM [falling, full curve]	
C=C1C(=O)O[C@H]2[C@H]1[C@H](OC(=O)CC(=O)O[C@@H]1C[C@@H](C)[C@@H]3C=CC(=O)[C@@]3(C)[C@H]3OC(=O)C(=C)[C@H]13)C[C@@H](C)[C@H]1C=CC(=O)[C@]12C	4.47 µM [falling, partial curve]	10 µM [rising, partial curve, poor fit]
C[C@]12CC(=CO)C(=O)C[C@@H]1CC[C@@H]1[C@@H]2CC[C@@]2(C)[C@H]1CC[C@]2(C)O	35.5 µM [falling, single point]	
Cc1ccc(-c2nc(N(C)C3CCN(C)CC3)c3ccccc3n2)cc1	25.9 µM [falling, single point]	
COC1=CC(=O)OC(/C=C/c2ccccc2)C1 (stereo not given)	32.6 µM [rising, single point]	18.4 µM [rising, single point]

SMILES	AC50 [1]	AC50 [2]
CC(Cc1ccccc1)[n+]1cc(/N=C(\[O-])N(C)C)on1 (stereo not given)	8.91 µM [rising, partial curve, poor fit]	
Cn1ncnc2c(=O)n(C)c(=O)nc1-2	3.55 µM [falling, full curve]	
COc1ccc(CC(=O)N(CCN(C)C)CC2CCCN(Cc3ccccc3F)C2)cc1 (stereo not given)	31.6 µM [falling, single point]	
O=c1c2ccccc2nc(SCC2CCCCO2)n1-c1ccccc1 (stereo not given)	3.66 µM [rising, partial curve, poor fit]	
CC(=O)C1C2c3ccccc3OC1(C)N=c1s/c(=C/c3cn(C)nc3C)c(=O)n12 (stereo not given)	6.31 µM [falling, full curve, poor fit]	
O=C(Oc1ccc2c(c1)CCC2)N1CCOCC1	20.6 µM [rising, partial curve, poor fit]	
CC1(C)OC(c2ccccc2)=C/C(=C/C=C2C(=O)NC(=S)NC2=O)O1	17.8 µM [falling, single point]	
CC(C)(C)n1cc(C(=O)c2ccccc2)cc1-c1ccccc1	7.08 µM [rising, full curve, poor fit]	
C[C@H]1CCC[C@H](O)CCCCCc2cc(O)cc(O)c2C(=O)O1	12.6 µM [falling, partial curve]	
O=c1oc2ccccc2n1CSC1=NCCS1	20 µM [falling, partial curve, poor fit]	
CC(C)OCCCNC(=O)c1ccc2c(c1)NC(=O)c1ccccc1S2	22.4 µM [falling, single point]	
O=C1NC(=O)C2(Cc3ccccc3N3CCCC32)C(=O)N1 (stereo not given)	2.06 µM [falling, partial curve, poor fit]	
FC(F)(F)c1cccc(-n2nnnc2C2(N3CCOCC3)CCCCC2)c1	6.31 µM [falling, single point]	
Cc1cc(N2C(=O)CC(N3CCC(n4c(=O)[nH]c5ccccc54)CC3)C2=O)no1 (stereo not given)	29.1 µM [rising, single point]	
Cc1ccc(OCCOc2cccc(C=C3C(=O)NC(=O)NC3=O)c2)c(C)c1	12.6 µM [falling, partial curve]	
CC1=CC(C)C(/C=N/N=C(N)N)C(C)C1 (stereo not given)	35.5 µM [falling, single point]	
CN1CCN(CCC(=O)OC2CC3CCC(C2)N3C)CC1 (stereo not given)	23.1 µM [falling, partial curve, poor fit]	
CC(=O)OC1(Cc2ccccc2)CN2CCC1c1ccccc12 (stereo not given)	11.2 µM [falling, partial curve, poor fit]	
Cc1cc(NCCN)nc2ccccc12	13 µM [falling, partial curve]	
Cc1[nH]c2ccccc2c1C1=CCNCC1	11.2 µM [falling, single point]	
